Reference: paper PMC8807876

Biological target: T1, endogenous MTBP (human (endogenous in 293T)) (UniProt Q96DY7)
T1 sequence: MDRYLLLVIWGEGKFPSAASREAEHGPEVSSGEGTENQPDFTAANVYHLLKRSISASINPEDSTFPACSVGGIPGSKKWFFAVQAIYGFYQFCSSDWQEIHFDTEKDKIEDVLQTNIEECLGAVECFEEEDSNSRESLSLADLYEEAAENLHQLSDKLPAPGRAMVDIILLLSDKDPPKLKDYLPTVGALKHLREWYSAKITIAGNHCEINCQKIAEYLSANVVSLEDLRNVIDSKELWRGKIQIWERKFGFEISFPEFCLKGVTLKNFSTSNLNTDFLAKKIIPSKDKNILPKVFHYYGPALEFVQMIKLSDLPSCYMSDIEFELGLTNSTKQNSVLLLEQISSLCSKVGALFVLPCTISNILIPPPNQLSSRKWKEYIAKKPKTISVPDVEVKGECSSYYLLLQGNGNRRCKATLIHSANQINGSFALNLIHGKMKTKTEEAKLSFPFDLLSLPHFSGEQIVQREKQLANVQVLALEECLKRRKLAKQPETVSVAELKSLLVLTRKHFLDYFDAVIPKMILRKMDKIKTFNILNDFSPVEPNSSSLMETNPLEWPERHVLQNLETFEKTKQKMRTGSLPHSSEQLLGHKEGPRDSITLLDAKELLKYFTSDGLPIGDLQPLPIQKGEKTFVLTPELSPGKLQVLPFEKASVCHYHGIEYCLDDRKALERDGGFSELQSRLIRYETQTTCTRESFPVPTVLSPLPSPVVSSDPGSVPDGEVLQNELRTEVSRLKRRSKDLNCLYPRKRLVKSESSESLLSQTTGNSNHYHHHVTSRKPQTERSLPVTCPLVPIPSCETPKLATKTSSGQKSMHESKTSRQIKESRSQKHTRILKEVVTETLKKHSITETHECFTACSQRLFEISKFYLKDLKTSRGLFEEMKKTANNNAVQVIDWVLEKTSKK
Assay: co-IP; Fig 3B: N-terminally 3HA-tagged Treslin/TICRR fragments transiently transfected into 293T; IP of endogenous MTBP with rabbit anti-MTBP (amino acids 1-284) on protein G magnetic beads, control IgG IP; 20 mM Hepes, 200 mM NaCl, 10% glycerol, 0.1% Triton; anti-HA immunoblot

Row | Substance | binding
1 | 3HA-Treslin/TICRR fragment with amino acids 545–557 deleted (human) (domain or fragment) | binds
2 | 3HA-Treslin/TICRR fragment with amino acids 518–543 deleted (human) (domain or fragment) | no binding
3 | 3HA-Treslin/TICRR fragment with amino acids 487–517 deleted (human) (domain or fragment) | binds

Results are given in words; binding and its absence hold for the method and conditions named. Binding seen in cells or lysates may run through a third protein. Binding calls can cover weak binding; strength is not graded here.
